The source of these data is article PMC6515119.

For this assay, the target named is T1, Homeodomain-interacting protein kinase (Hipk) fused C-terminally to the N-terminal fragment of YFP (Drosophila) (UniProt Q9W0Q1).
T1 sequence: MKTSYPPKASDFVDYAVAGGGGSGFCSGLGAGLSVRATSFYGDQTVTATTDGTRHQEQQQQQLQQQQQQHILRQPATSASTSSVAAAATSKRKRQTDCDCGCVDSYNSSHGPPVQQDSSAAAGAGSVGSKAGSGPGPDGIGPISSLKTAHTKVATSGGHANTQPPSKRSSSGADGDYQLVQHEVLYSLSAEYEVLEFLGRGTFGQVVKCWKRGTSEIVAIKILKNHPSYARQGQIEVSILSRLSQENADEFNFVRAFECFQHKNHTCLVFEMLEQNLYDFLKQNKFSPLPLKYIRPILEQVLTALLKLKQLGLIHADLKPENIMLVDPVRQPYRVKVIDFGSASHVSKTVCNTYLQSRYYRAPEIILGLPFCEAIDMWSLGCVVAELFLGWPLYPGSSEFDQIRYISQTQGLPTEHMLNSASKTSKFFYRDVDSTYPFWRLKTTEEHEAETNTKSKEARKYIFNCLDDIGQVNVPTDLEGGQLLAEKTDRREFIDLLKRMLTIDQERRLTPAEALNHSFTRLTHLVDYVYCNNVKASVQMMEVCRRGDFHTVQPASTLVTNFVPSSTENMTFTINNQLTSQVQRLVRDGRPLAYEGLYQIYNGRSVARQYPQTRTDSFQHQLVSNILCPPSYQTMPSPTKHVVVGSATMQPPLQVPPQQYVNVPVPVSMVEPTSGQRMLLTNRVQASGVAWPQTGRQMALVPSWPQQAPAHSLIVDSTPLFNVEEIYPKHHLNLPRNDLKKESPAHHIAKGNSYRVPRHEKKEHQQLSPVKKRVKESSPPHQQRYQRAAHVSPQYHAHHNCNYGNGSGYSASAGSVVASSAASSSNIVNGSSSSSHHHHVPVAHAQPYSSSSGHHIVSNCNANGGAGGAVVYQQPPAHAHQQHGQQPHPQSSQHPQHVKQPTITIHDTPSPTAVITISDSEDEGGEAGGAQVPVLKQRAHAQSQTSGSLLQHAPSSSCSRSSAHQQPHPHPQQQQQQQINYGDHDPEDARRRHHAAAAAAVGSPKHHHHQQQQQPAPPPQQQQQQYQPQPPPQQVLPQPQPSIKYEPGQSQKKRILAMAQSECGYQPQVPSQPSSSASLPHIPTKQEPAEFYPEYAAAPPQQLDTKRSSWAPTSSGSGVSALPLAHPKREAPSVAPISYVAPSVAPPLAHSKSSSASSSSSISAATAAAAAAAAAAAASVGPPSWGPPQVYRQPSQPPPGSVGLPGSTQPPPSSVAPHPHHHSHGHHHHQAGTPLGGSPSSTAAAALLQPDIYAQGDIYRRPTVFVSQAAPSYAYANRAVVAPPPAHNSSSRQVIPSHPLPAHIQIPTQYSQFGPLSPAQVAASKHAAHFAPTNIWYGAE
The experiment in a line: split reporter; BiFC: NYFP and CYFP fusions coexpressed from UAS constructs with MS1096-Gal4 in third larval instar wing imaginal discs; crosses at 25 °C; anti-GFP immunostaining to enhance the YFP signal.

These are yes or no findings as the source states them, for the method shown. In cells and extracts the contact can be indirect. A result given as binding can be weak or reduced; the word gives no strength. Sequences can lack the tags named with a protein.

Regarding “Homeobrain (Hbn) fused to the C-terminal fragment of YFP (Drosophila)”, the binding result is “binds”.
